# According to PubChem BioAssay AID485314 (National Center for Advancing Translational Sciences (NCATS), 2010):
# About 4,500 (1.3%) of roughly 340,000 compounds were called active. The inconclusive results got no clear call from the source; some entries with a clear call stand among them for comparison. The call rests on the fitted dose curve; in most records, active means well fitted inhibition curve with a large enough effect; inconclusive means small, poorly fitted or top-dose-only effect, or another doubt; inactive means no such curve, though single readings can be large or run the other way. Potencies of inconclusive entries are doubtful fits and often do not repeat.
# Target: DNA polymerase beta (Homo sapiens) (UniProt P06746)
# Experiment: qHTS Assay for Inhibitors of DNA Polymerase Beta
# Settings: Pol beta primer extension/strand displacement, fluorescence kinetic; activity change, negative = inhibition: at 114 µM (top of the series)
# Outline: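 Curves were derived by four-parameter Hill fits of normalized qHTS data. The kinetic fluorescent primer-extension read was taken at 0 and 10 min after 50 nM substrate, following a 15 min room-temperature preincubation of 10 nM enzyme with compounds.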
# On the % scale 0 is the no-effect control and ±100 the full control effect; potency means the concentration at half of the fitted maximal effect.
SMILES,Potency,"activity change, negative = inhibition"
Brc1ccc(CNCCCSc2ncccn2)cc1,"inconclusive: 28.2 µM [inhibitor, single point]",
COc1ccccc1N1CCN(C(=O)c2nc(-c3ccc(C)cc3)n3c2CCCCC3)CC1,"inconclusive: 20 µM [inhibitor, full curve]",
O=C(O)/C=C\C(=O)Nc1cc(O)ccc1[N+](=O)[O-],inactive,
O=C(N/N=C/c1cccc(OC2CSC2)c1)c1ccccc1O,active: 44.7 µM,
O=C(CCc1ccccc1)NNC(=O)Nc1cccc(Cl)c1,inactive,
Cc1oc2c(O)c(O)ccc2c(=O)c1-c1ccccc1,"inconclusive: 5.01 µM [inhibitor, full curve, poor fit]",
Cc1ccc(CNC(=O)CCc2c(C)nn(-c3ccc(N4CCCC4)nn3)c2C)cc1,inactive,
COc1ccc(C(=O)n2nc(-c3ccco3)nc2N)cc1,active: 25.1 µM,
CC(=O)c1c(N2CCOCC2)nc(=S)n(-c2ccc([N+](=O)[O-])cc2)c1C,"inconclusive: 0.126 µM [inhibitor, full curve, poor fit]",
O=C(COc1ccc2ccccc2c1)NNC(=O)Nc1ccccc1F,active: 35.5 µM,
O=C(/C=C/c1cccc(F)c1)Nc1cc(S(=O)(=O)N2CCOCC2)ccc1N1CCCC1,"inconclusive: 89.1 µM [inhibitor, single point]",
O=C(O)COc1ccccc1/C=N/NC(=O)COc1ccc(-c2ccccc2)cc1,,inconclusive: -49.2% [inhibitor]
CNC(=O)CN1C(=O)NC(c2ccccc2)(c2ccccc2)C1=O,"inconclusive: 11.2 µM [inhibitor, single point]",
CC(C)CCN1C(=O)c2ccc(C(=O)Nc3ccccc3C(=O)O)cc2C1=O,"inconclusive: 17.8 µM [inhibitor, partial curve, poor fit]",
Cc1cccc(NC(=O)Cn2cnc3c(oc4ccccc43)c2=O)c1C,"inconclusive: 8.91 µM [inhibitor, full curve]",
CCOC(=O)c1ccc(NC(=O)c2cc3c(=O)n(C)c4ccccc4c3n2C)cc1,inactive,
CNC(=O)CSc1nc(-c2ccccc2)c(-c2ccccc2)o1,"inconclusive: 89.1 µM [inhibitor, single point]",
Cc1ccc(/C=C/C(=O)O)cc1S(=O)(=O)Nc1ccccc1C(=O)O,"inconclusive: 0.447 µM [inhibitor, full curve, poor fit]",
O=C1NNC(=O)C1c1ccccc1,,inconclusive: -67.3% [inhibitor]
C=C(C)COc1ccc(-c2nc(N)ncc2Oc2ccccc2OCC)c(O)c1,"inconclusive: 35.5 µM [inhibitor, partial curve]",
CC(=O)c1cccc(NC(=O)c2ccc(C)c(S(=O)(=O)N3CCOCC3)c2)c1,"inconclusive: 100 µM [inhibitor, single point]",
O=C(Nc1cccnc1)c1ccc(COc2ccccc2Br)cc1,"inconclusive: 44.7 µM [inhibitor, partial curve]",
Cc1ccc(C(=O)Sc2cccccc2=O)cc1,active: 39.8 µM,
Cc1cccc(OCCCCn2nnc3sc4c(c3c2=O)CCC(C)C4)c1 (configuration not stated),active: 14.1 µM,

SMILES,Potency,"activity change, negative = inhibition"
CCOC(=S)N/C(=N\S(C)(=O)=O)c1ccccc1,"inconclusive: 79.4 µM [inhibitor, single point]",
COc1ccc(-c2cc3nc(-c4ccccc4)cc(N4CCCC(O)C4)n3n2)cc1 (configuration not stated),"inconclusive: 2 µM [inhibitor, full curve]",
CC1=C(C(=O)Nc2ccccc2)C(c2ccco2)C(C#N)=C(SCc2ccccc2)N1 (configuration not stated),"inconclusive: 56.2 µM [inhibitor, partial curve]",
O=c1oc2ccccc2n1CCn1c2ccccc2c2nc3ccccc3nc21,"inconclusive: 3.16 µM [inhibitor, full curve]",
Cc1nnc(N2C(=O)C(O)=C(C(=O)c3ccco3)C2c2ccc(F)cc2)s1 (configuration not stated),inactive,
O=C(O)c1cccc(Cn2cc(Cl)cn2)c1,"inconclusive: 14.1 µM [inhibitor, partial curve]",
O=C(CCSCCc1ccccn1)Nc1ccc(Cc2ccncc2)cc1,"inconclusive: 89.1 µM [inhibitor, single point]",
O=C(CS(=O)(=O)c1ccccc1)Nc1nccs1,inactive,
CCOc1ccc(C(=O)Nc2ccc(-c3nc4cc(CC)ccc4o3)cc2)cc1,inactive,
CCOc1ccc(-c2ccc(NS(=O)(=O)c3cc(C)c(C)cc3C)cc2)nn1,"inconclusive: 100 µM [inhibitor, single point]",
O=C1CCCC2=C1C(c1ccco1)Nc1ccc(C(=O)c3ccccc3)cc1N2 (configuration not stated),"inconclusive: 25.1 µM [inhibitor, partial curve, poor fit]",
CCOc1ccc(OCC)c(C2C(C#N)=C(N)N(c3cccnc3)C3=C2C(=O)CC(C)(C)C3)c1 (configuration not stated),"inconclusive: 39.8 µM [inhibitor, single point]",
CCC(=O)Nc1ccc(Cl)c(NC(=S)NC(=O)c2ccco2)c1,inactive,
Cc1ccc(C(=O)NCCc2ccc(F)cc2)s1,inactive,
CC(=O)N[C@@H](Cc1c[nH]c2ccccc12)C(=O)OCc1cc(C(F)(F)F)cc(C(F)(F)F)c1,"inconclusive: 15.8 µM [inhibitor, partial curve]",
COc1ccc(NC(=O)C(=O)NCCc2csc(-c3ccc(Cl)cc3)n2)cc1,inactive,
CCOc1ccc(CCNC(=O)c2cnc3sc(N4CCOCC4)nn3c2=O)cc1,inactive,
O=C(Cc1cccs1)Nc1nnc(SCc2ccc(Br)cc2)s1,active: 31.6 µM,
Cc1ccc(C)c(S(=O)(=O)NCC(c2ccco2)S(=O)(=O)c2ccc(F)cc2)c1 (configuration not stated),inactive,
CC(=O)Nc1ccc(Nc2ccccc2)cc1,"inconclusive: 12.6 µM [inhibitor, partial curve]",
CCOc1ccc(CN2C(=O)CC(=O)N(S(=O)(=O)c3ccc(OCC)cc3)C2=O)cc1,"inconclusive: 79.4 µM [inhibitor, single point]",
N#C/C(=C/c1ccc(-c2ccc(C(=O)O)c(Cl)c2)o1)C(=O)NCC1CCCO1 (configuration not stated),"inconclusive: 31.6 µM [inhibitor, full curve, poor fit]",
N#C/C(=C/c1cccn1-c1cccc(C(=O)O)c1)c1ccc(F)cc1,active: 31.6 µM,
CCN(CC)c1ccc(NC(=O)Nc2ccc(C(C)=O)cc2)cc1,"inconclusive: 89.1 µM [inhibitor, single point]",

# At a glance, some entries already given.
SMILES,Potency,"activity change, negative = inhibition"
CCOC(=S)N/C(=N\S(C)(=O)=O)c1ccccc1,"inconclusive: 79.4 µM [inhibitor, single point]",
COc1ccc(-c2cc3nc(-c4ccccc4)cc(N4CCCC(O)C4)n3n2)cc1 (configuration not stated),"inconclusive: 2 µM [inhibitor, full curve]",
CC1=C(C(=O)Nc2ccccc2)C(c2ccco2)C(C#N)=C(SCc2ccccc2)N1 (configuration not stated),"inconclusive: 56.2 µM [inhibitor, partial curve]",
O=c1oc2ccccc2n1CCn1c2ccccc2c2nc3ccccc3nc21,"inconclusive: 3.16 µM [inhibitor, full curve]",
Cc1nnc(N2C(=O)C(O)=C(C(=O)c3ccco3)C2c2ccc(F)cc2)s1 (configuration not stated),inactive,
O=C(O)c1cccc(Cn2cc(Cl)cn2)c1,"inconclusive: 14.1 µM [inhibitor, partial curve]",
O=C(CCSCCc1ccccn1)Nc1ccc(Cc2ccncc2)cc1,"inconclusive: 89.1 µM [inhibitor, single point]",
O=C(CS(=O)(=O)c1ccccc1)Nc1nccs1,inactive,
CCOc1ccc(C(=O)Nc2ccc(-c3nc4cc(CC)ccc4o3)cc2)cc1,inactive,
CCOc1ccc(-c2ccc(NS(=O)(=O)c3cc(C)c(C)cc3C)cc2)nn1,"inconclusive: 100 µM [inhibitor, single point]",
O=C1CCCC2=C1C(c1ccco1)Nc1ccc(C(=O)c3ccccc3)cc1N2 (configuration not stated),"inconclusive: 25.1 µM [inhibitor, partial curve, poor fit]",
CCOc1ccc(OCC)c(C2C(C#N)=C(N)N(c3cccnc3)C3=C2C(=O)CC(C)(C)C3)c1 (configuration not stated),"inconclusive: 39.8 µM [inhibitor, single point]",
CCC(=O)Nc1ccc(Cl)c(NC(=S)NC(=O)c2ccco2)c1,inactive,
Cc1ccc(C(=O)NCCc2ccc(F)cc2)s1,inactive,
CC(=O)N[C@@H](Cc1c[nH]c2ccccc12)C(=O)OCc1cc(C(F)(F)F)cc(C(F)(F)F)c1,"inconclusive: 15.8 µM [inhibitor, partial curve]",
COc1ccc(NC(=O)C(=O)NCCc2csc(-c3ccc(Cl)cc3)n2)cc1,inactive,
CCOc1ccc(CCNC(=O)c2cnc3sc(N4CCOCC4)nn3c2=O)cc1,inactive,

# Following part.

SMILES,Potency,"activity change, negative = inhibition"
Cn1cc(C(C[N+](=O)[O-])c2ccccc2)c2ccccc21 (configuration not stated),"inconclusive: 39.8 µM [inhibitor, single point]",
COc1ccccc1NC(=O)CN1C(=O)c2cccc3cccc1c23,inactive,
CC(=O)c1oc2ccccc2c1NC(=O)COC(=O)c1ccc(-n2nc(C)cc2C)cc1,"inconclusive: 12.6 µM [inhibitor, full curve]",
CCN(CC)C(=O)c1ccc(COc2ccc(Cl)c(C)c2)o1,active: 89.1 µM,
O=C(NNC1=NS(=O)(=O)c2ccccc21)c1cccc([N+](=O)[O-])c1,"inconclusive: 35.5 µM [inhibitor, single point]",
Cc1c(N2C(=O)c3ccc(Br)cc3C2=O)c(=O)n(-c2ccccc2)n1C,"inconclusive: 14.1 µM [inhibitor, partial curve]",
Cc1nnc(SCC2=C(C(=O)O)N3C(=O)C(NC(=O)Cn4nc(C(F)F)c(Cl)c4C)C3SC2)s1 (configuration not stated),active: 25.1 µM,
Cc1cc(N)ccc1-n1c(C)ccc1C,inactive,
Fc1ccc(-c2nc3ccccc3c3nc4ccccc4n23)cc1,inactive,
COCc1c(Br)c(C)nc(OCC(=O)N/N=C/c2ccco2)c1C#N,active: 17.8 µM,
CCOc1ccccc1CNC(=O)c1cnc2sc(N3CCCC3)nn2c1=O,inactive,
N#C/C(=C\c1c[nH]c2ccccc12)C(=O)c1ccc(O)c(O)c1,active: 3.77 µM,
O=C(NCc1ccccc1)c1ccc2nc(-c3ccco3)c(-c3ccco3)nc2c1,"inconclusive: 39.8 µM [inhibitor, partial curve]",
Cc1cc(C)cc(-n2c(SCC(=O)NCC3CCCO3)nc3c([nH]c4ccccc43)c2=O)c1 (configuration not stated),"inconclusive: 89.1 µM [inhibitor, single point]",
NC(=S)n1[nH]c(-c2ccc([N+](=O)[O-])cc2)c(N=Nc2ccc(Cl)cc2)c1=O,"inconclusive: 6.31 µM [inhibitor, full curve]",
CN(Cc1nc(-c2ccc3c(c2)OCO3)no1)CC1(N2CCOCC2)CCCCC1,"inconclusive: 63.1 µM [inhibitor, single point]",
COc1ccc(/C=C(\NC(=O)c2ccccc2)C(=O)NCCC(=O)O)cc1,"inconclusive: 31.6 µM [inhibitor, partial curve, poor fit]",
COc1ccc(CCNc2oc(-c3ccc(OC)c(OC)c3)nc2P(=O)(OC)OC)cc1OC,inactive,
COc1ccc(C(=O)Nc2cccc(NC(=O)c3ccc(OC)c(OC)c3)n2)cc1OC,active: 22.4 µM,
COc1ccc(OC)c(CNC(=O)CCCn2nc(C)c3c(C)n(-c4ccc(C)cc4)nc3c2=O)c1,inactive,
CC(C)c1ccc(NS(=O)(=O)c2ccc3[nH]cc(C(=O)N4CCCC4)c(=O)c3c2)cc1,"inconclusive: 44.7 µM [inhibitor, partial curve, poor fit]",
Cc1cccc(C)c1N1C(=O)CCC(C)(C)C1=O,inactive,
O=C(COc1ccc(Br)cc1)N(CCO)CCO,"inconclusive: 20 µM [inhibitor, partial curve, poor fit]",
O=C(Nc1ccc2oc(-c3cccnc3)nc2c1)c1ccc(-c2ccccc2)o1,,inconclusive: -67.1% [inhibitor]
